Reference: patent US20250161271A1, “PHARMACEUTICAL COMPOSITION FOR TREATING CANCER, COMPRISING ANTICANCER AGENT AND NOVEL COMPOUND HAVING INHIBITORY ACTIVITY WITH RESPECT TO PROSTAGLANDIN E2 RECEPTORS” (KANAPH THERAPEUTICS INC., priority 2022, published 2025)
Some results were stated once for a whole list of compounds, not compound by compound. For at least one compound, name, drawing or mass did not settle the structure. Each block holds one compound with its values, some of them ahead of it.

Amino acid sequences for entries named in this document (tags omitted). A change or cut given only in a name is not applied to a line headed by its entry.
UniProt P35408: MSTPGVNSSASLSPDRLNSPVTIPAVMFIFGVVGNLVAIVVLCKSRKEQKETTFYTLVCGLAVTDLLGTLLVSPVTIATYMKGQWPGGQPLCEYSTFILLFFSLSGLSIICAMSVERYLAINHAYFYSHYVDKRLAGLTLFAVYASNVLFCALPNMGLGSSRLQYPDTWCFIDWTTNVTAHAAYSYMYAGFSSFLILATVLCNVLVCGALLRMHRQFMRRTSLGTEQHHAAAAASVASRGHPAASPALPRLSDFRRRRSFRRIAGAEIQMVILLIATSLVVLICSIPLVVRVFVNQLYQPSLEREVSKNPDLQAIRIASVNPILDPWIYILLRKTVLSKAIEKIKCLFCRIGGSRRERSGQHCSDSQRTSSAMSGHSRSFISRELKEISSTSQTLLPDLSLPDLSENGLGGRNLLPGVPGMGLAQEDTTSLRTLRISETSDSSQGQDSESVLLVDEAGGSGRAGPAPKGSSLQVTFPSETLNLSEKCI
UniProt P43116: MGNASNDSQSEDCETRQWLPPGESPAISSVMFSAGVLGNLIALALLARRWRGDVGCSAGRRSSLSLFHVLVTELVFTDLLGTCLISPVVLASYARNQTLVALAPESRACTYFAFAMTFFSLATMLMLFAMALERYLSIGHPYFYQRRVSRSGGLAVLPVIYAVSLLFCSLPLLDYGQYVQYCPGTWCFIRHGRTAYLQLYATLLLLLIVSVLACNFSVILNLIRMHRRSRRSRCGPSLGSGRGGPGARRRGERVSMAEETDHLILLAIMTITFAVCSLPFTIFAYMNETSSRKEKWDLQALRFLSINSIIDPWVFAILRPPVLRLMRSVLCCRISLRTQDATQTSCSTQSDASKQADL

How the values were obtained:
hEP4 = molecular target: T1, hEP4 (Homo sapiens, UniProt P35408); test: hEP4 cAMP assay; assay type: cell-based; conditions: summary in words of Tables 22 to 25
T1 construct: expressed in transfected cells; host or cells: HEK293
Procedure: Experimental Example 1.2: hEP4 cAMP Assay
(§1) HEK293 cells overexpressing hEP4 were cultured in growth medium (GM:MEM (Gibco™, 11095080)/10% HI FBS (Gibco™, 10082147)/1% penicillin/streptomycin). Before the experiment, the growth medium was removed, and starvation medium (HBSS (Gibco™ 14025076)/10% GM) was added. Thereafter, the cells were incubated for 4 hours. HEK293 cells harboring hEP4 were detached from the culture dish with a non-enzymatic cell dissociation buffer (Gibco™, 15040066). The cells were resuspended in assay buffer (AB:HBSS, 0.1% BSA stabilizer, 0.5 mM IBMX, 5 mM HEPES).
(§2) 1,000 cells in 5 μL of AB were seeded per well in a 384 well plate (Corning®, 3570), and stock solutions of test compounds were prepared at a concentration of 1 mM in DMSO and serially diluted in DMSO to the concentration required for the inhibition dose response curve (test concentration range of 10 M-0.001 nM). PGE2 (Sigma, P0409, stock solution: 100 PM) was used as an agonist at a final concentration of 20 nM corresponding to EC50-80. 2.5 μL of the diluted compound and 2.5 μL of PGE2 (20 nM final concentration) were transferred to the assay plate, and then the plate was incubated at room temperature for 18.5 minutes.
(§3) 5 μL of each donor (Eu-cAMP tracer) and acceptor (ULight-anti-cAMP) was added, and the plate was incubated in the dark for 1 hour at room temperature, and then a Varioskan LUX multimode microplate reader was used to obtain the results (excitation: 334 nm, emission: 615 and 665 nm). The resulting FRET fluorescence value (665 nm/615 nm*10000) was converted and then calculated as a percentage of cAMP compared to the DMSO control value. IC50 values and curves were generated with GraphPad Prism software using log (inhibitor) versus response-variable slope (4 parameters), and the median of multiple experiments was taken as the experiment result.

hEP2 = molecular target: T2, hEP2 (Homo sapiens, UniProt P43116); test: hEP2 cAMP assay; assay type: cell-based; conditions: summary in words of Tables 22 to 25
T2 construct: expressed in transfected cells; host or cells: HEK293
Procedure: Experimental Example 1.1: hEP2 cAMP Assay
as §1, with “hEP2” for “hEP4”, “hours. The” for “hours.”
as §2, with “1 μM)” for “100 PM)”, “400 pM” for “20 nM”, “(400 pM” for “(20 nM”, “12” for “18.5”
as §3, with “relative” for “compared”, “slopes” for “slope”

Structure (SMILES): Cc1sc(C)c(C(=O)NC2CC3(C2)CC(C(=O)O)C3)c1Cc1ccc(-c2cc(F)cc(C3CNC3)c2)cc1 (stereo not shown) [Example 65, 6-(4-((3′-(azetidin-3-yl)-5′-fluoro-[1,1′-biphenyl]-4-yl)methyl)-2,5-dimethylthiophene-3-carboxamido)spiro[3.3]heptane-2-carboxylic acid]
inhibitory activity on EP4 (hEP4): excellent inhibitory activity
inhibitory activity on EP2 (hEP2): excellent inhibitory activity

Structure (SMILES): O=C(NC1CC2(C1)CC(C(=O)O)C2)c1csc2ccn(Cc3ccc(-c4ccccn4)cc3)c12 (stereo not shown) [Example 104, 6-(4-(4-(pyridin-2-yl)benzyl)-4H-thieno[3,2-b]pyrrole-3-carboxamido)spiro[3.3]heptane-2-carboxylic acid]
inhibitory activity on EP4 (hEP4): excellent inhibitory activity
inhibitory activity on EP2 (hEP2): excellent inhibitory activity

Structure (SMILES): Cc1cn(Cc2ccc(-c3ccccc3)cc2)c2c(C(=O)NC3CC4(C3)CC(C(=O)O)C4)csc12 (stereo not shown) [Example 81, 6-(4-([1,1′-biphenyl]-4-ylmethyl)-6-methyl-4H-thieno[3,2-b]pyrrole-3-carboxamido)spiro[3.3]heptane-2-carboxylic acid]
inhibitory activity on EP4 (hEP4): excellent inhibitory activity
inhibitory activity on EP2 (hEP2): excellent inhibitory activity

Structure (SMILES): O=C(NC1CC2(C1)CC(C(=O)O)C2)c1csc2ccn(Cc3ccc(-n4cccn4)cc3)c12 (stereo not shown) [Example 107, 6-(4-(4-(1H-pyrazol-1-yl)benzyl)-4H-thieno[3,2-b]pyrrole-3-carboxamido)spiro[3.3]heptane-2-carboxylic acid]
inhibitory activity on EP4 (hEP4): excellent inhibitory activity
inhibitory activity on EP2 (hEP2): excellent inhibitory activity

Structure (SMILES): COc1ccnc(-c2ccc(Cn3ccc4scc(C(=O)NC5CC6(C5)CC(C(=O)O)C6)c43)cc2)c1 (stereo not shown) [Example 109, 6-(4-(4-(4-methoxypyridin-2-yl)benzyl)-4H-thieno[3,2-b]pyrrole-3-carboxamido)spiro[3.3]heptane-2-carboxylic acid]
inhibitory activity on EP4 (hEP4): excellent inhibitory activity
inhibitory activity on EP2 (hEP2): excellent inhibitory activity

Structure (SMILES): Cc1cc(C(F)(F)F)n(-c2ccc(Cn3ccc4scc(C(=O)NC5CC6(C5)CC(C(=O)O)C6)c43)cc2)n1 (stereo not shown) [Example 112, 6-(4-(4-(3-methyl-5-(trifluoromethyl)-1H-pyrazol-1-yl)benzyl)-4H-thieno[3,2-b]pyrrole-3-carboxamido)spiro[3.3]heptane-2-carboxylic acid]
inhibitory activity on EP4 (hEP4): excellent inhibitory activity
inhibitory activity on EP2 (hEP2): excellent inhibitory activity

Structure (SMILES): Cc1sc(C)c(C(=O)NC2CC3(C2)CC(C(=O)O)C3)c1Cc1ccc(N2CCOCC2)cc1 (stereo not shown) [Example 9, 6-(2,5-dimethyl-4-(4-morpholinobenzyl)thiophene-3-carboxamido)spiro[3.3]heptane-2-carboxylic acid]
inhibitory activity on EP4 (hEP4): excellent inhibitory activity
inhibitory activity on EP2 (hEP2): excellent inhibitory activity

Structure (SMILES): COC(c1ccc(-c2ccccc2)cc1)c1c(C)sc(C)c1C(=O)NC1CC2(C1)CC(C(=O)O)C2 (stereo not shown) [Example 12, 6-(4-([1,1′-biphenyl]-4-yl(methoxy)methyl)-2,5-dimethylthiophene-3-carboxamido)spiro[3.3]heptane-2-carboxylic acid]
inhibitory activity on EP4 (hEP4): excellent inhibitory activity
inhibitory activity on EP2 (hEP2): excellent inhibitory activity

Structure (SMILES): COc1cc(OC)cc(-c2ccc(Cc3c(C)sc(C)c3C(=O)NC3CC4(C3)CC(C(=O)O)C4)cc2)c1 (stereo not shown) [Example 53, 6-(4-((3′,5′-dimethoxy-[1,1′-biphenyl]-4-yl)methyl)-2,5-dimethylthiophene-3-carboxamido)spiro[3.3]heptane-2-carboxylic acid]
inhibitory activity on EP4 (hEP4): excellent inhibitory activity
inhibitory activity on EP2 (hEP2): excellent inhibitory activity

Structure (SMILES): COc1cc(CNC(=O)OC(C)(C)C)cc(-c2ccc(Cc3c(C)sc(C)c3C(=O)NC3CC4(C3)CC(C(=O)O)C4)cc2)c1 (stereo not shown) [Example 59, 6-(4-((3′-(((tert-butoxycarbonyl)amino)methyl)-5′-methoxy-[1,1′-biphenyl]-4-yl)methyl)-2,5-dimethylthiophene-3-carboxamido)spiro[3.3]heptane-2-carboxylic acid]
inhibitory activity on EP4 (hEP4): excellent inhibitory activity
inhibitory activity on EP2 (hEP2): excellent inhibitory activity

Results, then the compound that gave them:

inhibitory activity on EP4 (hEP4): excellent inhibitory activity
inhibitory activity on EP2 (hEP2): excellent inhibitory activity
Structure (SMILES): Cc1sc(C)c(C(=O)NC2CC3(C2)CC(C(=O)O)C3)c1Cc1ccc(-c2cc(F)cc(C(N)=O)c2)cc1 (stereo not shown) [Example 57, 6-(4-((3′-carbamoyl-5′-fluoro-[1,1′-biphenyl]-4-yl)methyl)-2,5-dimethylthiophene-3-carboxamido)spiro[3.3]heptane-2-carboxylic acid]

inhibitory activity on EP4 (hEP4): excellent inhibitory activity
inhibitory activity on EP2 (hEP2): excellent inhibitory activity
Structure (SMILES): CCc1ccc(-c2ccc(Cc3c(C)sc(C)c3C(=O)NC3CC4(C3)CC(C(=O)O)C4)cc2)cc1 (stereo not shown) [Example 31, 6-(4-((4′-ethyl-[1,1′-biphenyl]-4-yl)methyl)-2,5-dimethylthiophene-3-carboxamido)spiro[3.3]heptane-2-carboxylic acid]

inhibitory activity on EP4 (hEP4): excellent inhibitory activity
inhibitory activity on EP2 (hEP2): excellent inhibitory activity
Structure (SMILES): Cc1sc(C)c(C(=O)NC2CC3(C2)CC(C(=O)O)C3)c1Cc1ccc(-c2ccccc2F)cc1 (stereo not shown) [Example 49, 6-(4-((2′-fluoro-[1,1′-biphenyl]-4-yl)methyl)-2,5-dimethylthiophene-3-carboxamido)spiro[3.3]heptane-2-carboxylic acid]

inhibitory activity on EP4 (hEP4): excellent inhibitory activity
inhibitory activity on EP2 (hEP2): excellent inhibitory activity
Structure (SMILES): Cc1sc(C)c(C(=O)NC2CC3(C2)CC(C(=O)O)C3)c1Cc1ccc(-c2ccccc2)cc1 (stereo not shown) [Example 1, 6-(4-([1,1′-biphenyl]-4-ylmethyl)-2,5-dimethylthiophene-3-carboxamido)spiro[3.3]heptane-2-carboxylic acid]

inhibitory activity on EP4 (hEP4): excellent inhibitory activity
inhibitory activity on EP2 (hEP2): excellent inhibitory activity
Structure (SMILES): Cc1sc(C)c(C(=O)NC2CC3(C2)CC(C(=O)O)C3)c1Cc1ccc(-c2ccnc(O)c2)cc1 (stereo not shown) [Example 72, 6-(4-(4-(2-hydroxypyridin-4-yl)benzyl)-2,5-dimethylthiophene-3-carboxamido)spiro[3.3]heptane-2-carboxylic acid]

inhibitory activity on EP4 (hEP4): excellent inhibitory activity
inhibitory activity on EP2 (hEP2): excellent inhibitory activity
Structure (SMILES): Cc1sc(C)c(C(=O)NC2CC3(C2)CC(C(=O)O)C3)c1Cc1ccc(-c2cc(O)cc(F)c2)cc1 (stereo not shown) [Example 71, 6-(4-((3′-fluoro-5′-hydroxy-[1,1′-biphenyl]-4-yl)methyl)-2,5-dimethylthiophene-3-carboxamido)spiro[3.3]heptane-2-carboxylic acid]

inhibitory activity on EP4 (hEP4): excellent inhibitory activity
inhibitory activity on EP2 (hEP2): excellent inhibitory activity
Structure (SMILES): Cc1ccccc1-c1ccc(Cc2c(C)sc(C)c2C(=O)NC2CC3(C2)CC(C(=O)O)C3)cc1 (stereo not shown) [Example 38, 6-(2,5-dimethyl-4-((2′-methyl-[1,1′-biphenyl]-4-yl)methyl)thiophene-3-carboxamido)spiro[3.3]heptane-2-carboxylic acid]
